Survivor count and T/C data for 24 compounds are collected here from PubChem BioAssay AID248 (DTP/NCI, 2004).

This assay deals with L1210 leukemia ip in BDF1 mice, survival T/C. Kind of assay: NCI In Vivo Anticancer Drug Screen. Data for tumor model L1210 Leukemia (intraperitoneal) in B6D2F1 (BDF1) mice. The following applies: T/C endpoint: mean survival time, higher T/C = longer survival.
[1] abbreviates: dose: 200.0 mg/kg/injection, schedule: Q04DX002 (ip), vehicle: Klucel (hydroxypropylcellulose) (HPC).
[2] abbreviates: dose: 200.0 mg/kg/injection, schedule: Q04DX003 (ip), vehicle: saline.
The mark [3] stands for this setting: dose: 400.0 mg/kg/injection, schedule: Q04DX003 (ip), vehicle: saline.
Setting [4] is: dose: 100.0 mg/kg/injection, schedule: Q01DX009 (ip), vehicle: saline with Tween-80.
Where [5] appears, read: dose: 200.0 mg/kg/injection, schedule: Q04DX003 (ip), vehicle: saline with Tween-80.
Where [6] appears, read: dose: 400.0 mg/kg/injection, schedule: Q04DX003 (ip), vehicle: saline with Tween-80.
Where [7] appears, read: dose: 400.0 mg/kg/injection, schedule: Q04DX002 (ip), vehicle: saline.
Where [8] appears, read: dose: 200.0 mg/kg/injection, schedule: Q01DX009 (ip), vehicle: saline with Tween-80.

The list shows only some results of the screen, not a fair sample: it is rich in T/C values a quarter to a half above the control, in often repeated tests (any T/C) and in doses without a T/C. Other doses and runs of a compound stand elsewhere. T/C gives the treated animals as a percentage of the vehicle group. Some doses have a count of surviving animals in place of a T/C: the source holds a T/C of zero for them, seemingly a mark for toxic or unscored doses. Some doses without a T/C left all or most animals alive at the check, yet need not have been tolerated: the source hardly ever lists a survival T/C far under the control, and the zero likely stands for such cases as well. Survivors were counted at the toxicity check, usually on the fifth day, unless a day is given; later deaths do not show. Schedules are NCI's codes, read here as Q, the interval in days (D) or hours (H), X, the number of doses. For survival time, this PubChem deposit counts one and a half times the control or more as active, and values a quarter to a half above the control carry no call in these data; other NCI protocols may use other cut-offs. Some schedule codes hold Z or #, which are not explained here. Some T/C values are followed by the survivors on the day toxicity was checked, most often the fifth; where none is given, no animal had died by that day.

As for `Cc1ccc([N+](=O)[O-])cc1NC(=O)Oc1ccc2c(C)cc(=O)oc2c1`, the survivor count under setting [1] is 4 of 4.
Turning to `CN(C)CC/C=C1\c2ccccc2CSc2ccccc21`, the survivor count runs as follows: (dose: 100.0 mg/kg/injection, schedule: Q01DX009 (ip), vehicle: saline) 1 of 6; under setting [2], 0 of 4; under setting [3], 0 of 4.
On to `c1cc(CCc2ccncc2)ccn1`, for which the survivor count under setting [2] is 1 of 3 and the survivor count under setting [3] is listed as 0 of 3.
For the compound `CC(C)C(=O)[O][Sn]([c]1ccccc1)([c]1ccccc1)[c]1ccccc1`, the survivor count is reported as 3 of 3 (dose: 100.0 mg/kg/injection, schedule: Q04DX002 (ip), vehicle: Klucel (hydroxypropylcellulose) (HPC)); 3 of 3 under setting [1]; 3 of 3 (dose: 400.0 mg/kg/injection, schedule: Q04DX002 (ip), vehicle: Klucel (hydroxypropylcellulose) (HPC)).
As for `CCCCCCCCCCCCCCCCNC(=O)C[N+](C)(C)Cc1ccccc1`, the survivor count (dose: 10.0 mg/kg/injection, schedule: Q01DX009 (ip), vehicle: saline with Tween-80) is given as 4 of 6.
As for `O=C(NC(Cc1ccccc1)C(=O)CCl)OCc1ccccc1` (stereo unspecified), the survivor count was 3 of 6 under setting [4]; 6 of 6 (dose: 200.0 mg/kg/injection, schedule: Q04DX003 (ip), vehicle: saline sonified); 2 of 6 (dose: 400.0 mg/kg/injection, schedule: Q04DX003 (ip), vehicle: saline sonified).
Take `C=CCN(C)N=Nc1ccccc1C(N)=O`: the T/C is, setting by setting: (dose: 59.0 mg/kg/injection, schedule: Q01DX009 (ip), vehicle: saline with Tween-80) 135 % of control; (dose: 88.0 mg/kg/injection, schedule: Q01DX009 (ip), vehicle: saline with Tween-80) 148 % of control; (dose: 133.0 mg/kg/injection, schedule: Q01DX009 (ip), vehicle: saline with Tween-80) 130 % of control; (dose: 133.0 mg/kg/injection, schedule: Q04DX003 (ip), vehicle: saline with Tween-80) 141 % of control; under setting [5], 149 % of control [5 of 6 alive]; (dose: 268.0 mg/kg/injection, schedule: Q01DX001 (ip), vehicle: saline with Tween-80) 127 % of control. Also, the survivor count reads like this: under setting [5], 3 of 6; (dose: 300.0 mg/kg/injection, schedule: Q04DX003 (ip), vehicle: saline with Tween-80) 0 of 6; (dose: 400.0 mg/kg/injection, schedule: Q01DX001 (ip), vehicle: saline with Tween-80) 3 of 6; under setting [6], 0 of 6; (dose: 600.0 mg/kg/injection, schedule: Q01DX001 (ip), vehicle: saline with Tween-80) 3 of 6.
Consider `CC(=O)OC1C(=O)C(O)C(C)OC1O[C@@H]1C[C@@]2(C)[C@@H]3CC=C4[C@@H](C[C@H](O)C(=O)C4(C)C)[C@]3(C)C(=O)C[C@]2(C)[C@H]1[C@@](C)(O)C(=O)/C=C/C(C)(C)O` (stereo partly specified), for which the survivor count is recorded as 2 of 6 (dose: 5.0 mg/kg/injection, schedule: Q01DX009 (ip), vehicle: saline) and 0 of 6 (dose: 10.0 mg/kg/injection, schedule: Q01DX009 (ip), vehicle: saline).
As to `COc1ccc(C)cc1NC(=O)Oc1ccc2c(C)cc(=O)oc2c1`, the survivor count (dose: 400.0 mg/kg/injection, schedule: Q01DX009 (ip), vehicle: saline with Tween-80) is given as 4 of 6.
For the compound `Nc1nc(N)c(CCCOc2ccccc2)c(N)n1`, the survivor count under setting [7] is listed as 1 of 3.
As to `CC(C)(CCCO)c1ccccc1`, the survivor count under setting [8] is reported as 1 of 3.
With `CCC1(CC)CC1(Cl)Cl`, the survivor count (dose: 300.0 mg/kg/injection, schedule: Q01DX001 (ip), vehicle: acetone) is on record as 1 of 6.
Regarding `C[C@]12CC[C@@H]3c4ccc(Oc5nc(N6CC6)nc(N6CC6)n5)cc4CC[C@H]3[C@@H]1CCC2=O`, the survivor count runs as follows: (dose: 50.0 mg/kg/injection, schedule: Q01DX009 (ip), vehicle: steroid suspending solution) 1 of 6; (dose: 100.0 mg/kg/injection, schedule: Q01DX009 (ip), vehicle: steroid suspending solution) 0 of 6; (dose: 200.0 mg/kg/injection, schedule: Q01DX009 (oral), vehicle: carboxymethylcellulose (CMC)) 0 of 6; (dose: 200.0 mg/kg/injection, schedule: Q04DX003 (sc), vehicle: steroid suspending solution) 5 of 6; (dose: 400.0 mg/kg/injection, schedule: Q04DX003 (sc), vehicle: steroid suspending solution) 3 of 6.
Turning to `CC(CN)OC12CC3CC(CC(C3)C1)C2` (stereo unspecified), the T/C (dose: 20.0 mg/kg/injection, schedule: Q04DX002 (ip), vehicle: saline) is 139 % of control. The survivor count by setting is: (dose: 100.0 mg/kg/injection, schedule: Q04DX002 (ip), vehicle: saline) 1 of 3; (dose: 200.0 mg/kg/injection, schedule: Q04DX002 (ip), vehicle: saline) 0 of 3; under setting [7], 0 of 3.
`CCCCCCCCCCCCCCC(=O)[O][Hg][c]1ccccc1`: the survivor count runs as follows: (dose: 150.0 mg/kg/injection, schedule: Q01DX001 (ip), vehicle: steroid suspending solution) 1 of 6; (dose: 300.0 mg/kg/injection, schedule: Q01DX001 (ip), vehicle: steroid suspending solution) 0 of 6.
For `N=C1c2ccccc2-c2ccccc21`, the survivor count under setting [6] is listed as 0 of 6.
As to `[Se]=P(N1CCCCC1)(N1CCCCC1)N1CCCCC1`, the survivor count (dose: 100.0 mg/kg/injection, schedule: Q01DX009 (ip), vehicle: Klucel (hydroxypropylcellulose) (HPC)) is on record as 4 of 6; the survivor count (dose: 200.0 mg/kg/injection, schedule: Q01DX009 (ip), vehicle: Klucel (hydroxypropylcellulose) (HPC)) is 3 of 6; the survivor count (dose: 400.0 mg/kg/injection, schedule: Q01DX009 (ip), vehicle: Klucel (hydroxypropylcellulose) (HPC)) is 0 of 6.
For `O=C(O)C(CSC(c1ccccc1)(c1ccccc1)c1ccccc1)N=Cc1cccs1` (stereo unspecified), the T/C (dose: 35.0 mg/kg/injection, schedule: Q01DX009 (ip), vehicle: saline) was 128 % of control. The survivor count by setting is: under setting [4], 3 of 6; (dose: 150.0 mg/kg/injection, schedule: Q01DX009 (ip), vehicle: saline) 6 of 6.
In the case of `O=S1(=O)C2CCCC1C(Cl)CC2` (stereo unspecified), the survivor count runs as follows: (dose: 30.0 mg/kg/injection, schedule: Q01DX001 (ip), vehicle: carboxymethylcellulose (CMC)) 2 of 6; (dose: 60.0 mg/kg/injection, schedule: Q01DX001 (ip), vehicle: carboxymethylcellulose (CMC)) 0 of 6; (dose: 75.0 mg/kg/injection, schedule: Q01DX001 (ip), vehicle: carboxymethylcellulose (CMC)) 0 of 6; (dose: 150.0 mg/kg/injection, schedule: Q01DX001 (ip), vehicle: carboxymethylcellulose (CMC)) 0 of 6; (dose: 300.0 mg/kg/injection, schedule: Q01DX001 (ip), vehicle: carboxymethylcellulose (CMC)) 0 of 6.
As to `COc1cccc(CCCCO)c1`, the survivor count under setting [8] is given as 3 of 3.
As for `O=[N+]([O-])c1ccc(N2N=NC(c3ccccc3)C2(c2ccccc2)N2CCOCC2)cc1` (stereo unspecified), the survivor count was 6 of 6 (dose: 75.0 mg/kg/injection, schedule: Q01DX001 (ip), vehicle: saline) and 6 of 6 (dose: 300.0 mg/kg/injection, schedule: Q01DX001 (ip), vehicle: saline).
Take `O=C/C=C/C=O`: the survivor count was 0 of 3 (dose: 100.0 mg/kg/injection, schedule: Q01DX001 (ip), vehicle: saline); 0 of 3 (dose: 200.0 mg/kg/injection, schedule: Q01DX001 (ip), vehicle: saline); 0 of 3 (dose: 400.0 mg/kg/injection, schedule: Q01DX001 (ip), vehicle: saline).
As to `CN=C(NC)c1ccc(NC(=O)c2ccc(C(=O)Nc3ccc(C(=NC)NC)cc3)c(N)c2)cc1`, the T/C (dose: 18.0 mg/kg/injection, schedule: Q01DX Z (ip), vehicle: carboxymethylcellulose (CMC)) was 139 % of control.
Regarding `COc1cc(CC2COCC2Cc2ccc3c(c2)OCO3)cc(OC)c1OC` (stereo unspecified), the T/C (dose: 200.0 mg/kg/injection, schedule: Q01DX009 (ip), vehicle: acetone) was 129 % of control [5 of 6 alive].
